These are yes or no findings as the source states them, for the method shown. In cells and extracts the contact can be indirect. A yes stands for co-enrichment or nearness to the bait. Other partners may have been found.
Biological target: AXL-BirA*-HA (human) (UniProt P30530)
Assay: proximity labelling

Protein sequences, listed by entry. Tags and fused reporters are not part of them. Lines headed by an entry give the natural chain unless they say otherwise; changes in a name come on top.
UniProt P05556: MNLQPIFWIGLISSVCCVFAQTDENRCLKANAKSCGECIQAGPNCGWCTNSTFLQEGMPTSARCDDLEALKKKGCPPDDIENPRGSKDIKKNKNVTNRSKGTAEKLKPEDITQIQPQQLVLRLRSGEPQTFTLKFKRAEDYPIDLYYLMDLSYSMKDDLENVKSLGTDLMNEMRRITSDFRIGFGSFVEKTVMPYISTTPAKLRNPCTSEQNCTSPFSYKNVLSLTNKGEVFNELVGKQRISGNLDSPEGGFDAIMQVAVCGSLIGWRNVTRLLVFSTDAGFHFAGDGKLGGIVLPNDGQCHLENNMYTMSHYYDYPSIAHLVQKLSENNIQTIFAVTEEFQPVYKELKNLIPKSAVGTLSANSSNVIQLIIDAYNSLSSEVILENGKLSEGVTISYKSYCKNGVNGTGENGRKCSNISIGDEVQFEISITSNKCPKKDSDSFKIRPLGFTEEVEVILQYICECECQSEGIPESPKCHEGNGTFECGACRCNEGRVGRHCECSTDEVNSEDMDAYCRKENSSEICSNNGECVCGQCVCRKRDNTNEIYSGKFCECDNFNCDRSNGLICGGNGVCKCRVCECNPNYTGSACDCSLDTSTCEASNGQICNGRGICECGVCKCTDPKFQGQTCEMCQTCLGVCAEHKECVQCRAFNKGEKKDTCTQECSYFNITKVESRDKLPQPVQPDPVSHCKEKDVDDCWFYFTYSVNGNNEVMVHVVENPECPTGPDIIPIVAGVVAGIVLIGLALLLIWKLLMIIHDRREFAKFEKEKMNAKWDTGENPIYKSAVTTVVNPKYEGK
UniProt O00459: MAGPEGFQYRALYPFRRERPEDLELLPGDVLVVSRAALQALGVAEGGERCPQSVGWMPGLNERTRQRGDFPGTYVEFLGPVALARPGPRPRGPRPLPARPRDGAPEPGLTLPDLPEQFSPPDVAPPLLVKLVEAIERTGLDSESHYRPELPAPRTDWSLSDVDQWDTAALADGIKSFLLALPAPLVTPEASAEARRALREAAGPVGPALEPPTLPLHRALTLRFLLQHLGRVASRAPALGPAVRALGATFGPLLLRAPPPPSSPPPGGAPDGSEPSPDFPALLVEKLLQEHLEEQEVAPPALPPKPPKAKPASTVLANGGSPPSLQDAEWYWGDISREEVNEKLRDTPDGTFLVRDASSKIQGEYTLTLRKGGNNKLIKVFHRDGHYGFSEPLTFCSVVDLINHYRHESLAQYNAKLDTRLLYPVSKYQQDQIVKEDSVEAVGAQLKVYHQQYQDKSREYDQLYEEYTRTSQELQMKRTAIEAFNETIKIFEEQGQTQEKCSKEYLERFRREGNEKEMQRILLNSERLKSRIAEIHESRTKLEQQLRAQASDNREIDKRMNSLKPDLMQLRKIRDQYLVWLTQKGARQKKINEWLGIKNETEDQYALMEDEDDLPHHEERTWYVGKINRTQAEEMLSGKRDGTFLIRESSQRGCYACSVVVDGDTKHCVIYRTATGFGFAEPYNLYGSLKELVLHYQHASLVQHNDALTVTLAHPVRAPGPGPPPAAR
UniProt P35240: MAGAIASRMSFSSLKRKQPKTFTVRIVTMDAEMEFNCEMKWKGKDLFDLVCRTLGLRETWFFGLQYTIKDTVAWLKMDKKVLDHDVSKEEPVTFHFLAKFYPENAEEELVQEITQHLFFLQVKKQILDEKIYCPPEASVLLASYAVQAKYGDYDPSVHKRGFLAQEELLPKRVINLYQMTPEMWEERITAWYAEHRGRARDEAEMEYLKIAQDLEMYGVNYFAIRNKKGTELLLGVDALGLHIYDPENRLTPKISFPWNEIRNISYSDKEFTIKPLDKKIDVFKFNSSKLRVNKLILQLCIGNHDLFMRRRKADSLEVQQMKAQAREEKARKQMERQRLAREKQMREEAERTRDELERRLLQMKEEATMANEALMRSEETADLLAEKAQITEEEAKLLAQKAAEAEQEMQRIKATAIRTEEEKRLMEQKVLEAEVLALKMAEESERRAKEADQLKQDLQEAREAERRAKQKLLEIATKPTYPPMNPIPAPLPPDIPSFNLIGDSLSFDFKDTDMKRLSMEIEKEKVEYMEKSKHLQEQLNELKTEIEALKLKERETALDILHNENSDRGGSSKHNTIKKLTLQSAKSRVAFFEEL
UniProt P49023: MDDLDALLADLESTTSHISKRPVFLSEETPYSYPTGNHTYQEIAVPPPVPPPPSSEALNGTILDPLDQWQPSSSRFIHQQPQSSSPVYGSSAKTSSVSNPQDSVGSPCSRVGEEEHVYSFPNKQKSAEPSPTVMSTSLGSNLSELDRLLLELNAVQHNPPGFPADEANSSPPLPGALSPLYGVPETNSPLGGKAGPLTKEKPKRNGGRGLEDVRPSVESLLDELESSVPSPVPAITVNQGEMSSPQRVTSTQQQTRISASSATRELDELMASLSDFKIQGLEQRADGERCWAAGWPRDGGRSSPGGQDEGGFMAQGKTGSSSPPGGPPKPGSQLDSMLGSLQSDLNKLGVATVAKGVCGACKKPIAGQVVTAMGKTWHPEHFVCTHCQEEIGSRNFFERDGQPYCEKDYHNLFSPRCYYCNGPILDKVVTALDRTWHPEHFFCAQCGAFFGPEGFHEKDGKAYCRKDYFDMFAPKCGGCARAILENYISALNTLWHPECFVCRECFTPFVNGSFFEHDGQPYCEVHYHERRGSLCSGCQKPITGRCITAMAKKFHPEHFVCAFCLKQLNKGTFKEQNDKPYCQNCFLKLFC
UniProt P27986: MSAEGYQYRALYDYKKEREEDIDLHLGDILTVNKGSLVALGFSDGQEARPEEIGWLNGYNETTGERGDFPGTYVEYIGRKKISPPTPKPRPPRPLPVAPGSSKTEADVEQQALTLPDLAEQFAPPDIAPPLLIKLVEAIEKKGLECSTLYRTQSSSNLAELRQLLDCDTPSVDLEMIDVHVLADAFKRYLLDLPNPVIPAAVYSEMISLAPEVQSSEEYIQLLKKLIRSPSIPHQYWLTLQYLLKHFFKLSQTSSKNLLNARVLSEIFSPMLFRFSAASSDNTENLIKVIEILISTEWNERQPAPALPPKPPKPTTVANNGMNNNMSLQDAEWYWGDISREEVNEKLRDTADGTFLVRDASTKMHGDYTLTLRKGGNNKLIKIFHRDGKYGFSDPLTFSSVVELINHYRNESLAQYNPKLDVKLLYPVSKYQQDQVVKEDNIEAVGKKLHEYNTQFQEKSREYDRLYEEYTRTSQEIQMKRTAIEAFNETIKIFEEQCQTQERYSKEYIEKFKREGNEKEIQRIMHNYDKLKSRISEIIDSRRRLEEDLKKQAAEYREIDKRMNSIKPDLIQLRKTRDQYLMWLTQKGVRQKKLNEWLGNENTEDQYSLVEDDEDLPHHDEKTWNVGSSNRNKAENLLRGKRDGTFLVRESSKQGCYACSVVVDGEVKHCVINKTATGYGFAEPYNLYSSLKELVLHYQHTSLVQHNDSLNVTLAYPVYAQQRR
UniProt Q9Y6W5: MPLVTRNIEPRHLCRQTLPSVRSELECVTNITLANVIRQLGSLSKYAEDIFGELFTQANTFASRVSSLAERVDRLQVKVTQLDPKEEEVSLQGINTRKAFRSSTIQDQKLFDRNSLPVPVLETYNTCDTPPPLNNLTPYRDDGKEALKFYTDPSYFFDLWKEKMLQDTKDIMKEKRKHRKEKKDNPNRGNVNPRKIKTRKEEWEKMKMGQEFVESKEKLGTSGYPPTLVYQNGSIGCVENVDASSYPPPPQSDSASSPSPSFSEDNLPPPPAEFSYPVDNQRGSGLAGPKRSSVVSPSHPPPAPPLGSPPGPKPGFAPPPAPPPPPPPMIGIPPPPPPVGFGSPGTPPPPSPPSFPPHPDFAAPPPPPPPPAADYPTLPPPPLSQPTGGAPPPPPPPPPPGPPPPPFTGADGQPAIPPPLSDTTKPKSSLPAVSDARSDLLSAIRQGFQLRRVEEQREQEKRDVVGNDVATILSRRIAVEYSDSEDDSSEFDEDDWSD

Row | Substance | binding
1 | integrin β1 (from UniProt P05556 21-798) | binds
2 | p85β, regulatory subunit of class IA PI3Ks (from UniProt O00459 1-728) | binds
3 | merlin (from UniProt P35240 1-595) | binds
4 | vinculin (from UniProt P18206-2) | binds

Further lines, results first:

Row | binding | Substance
5 | binds | paxillin (from UniProt P49023 1-591)
6 | binds | p85α, regulatory subunit of class IA PI3Ks (from UniProt P27986 1-724)
7 | binds | WAVE2 (from UniProt Q9Y6W5 1-498)

Reference: publication doi:10.1101/2020.03.15.993147
